Biological target: Trypanothione reductase (Trypanosoma cruzi, UniProt P28593)
Test: Inhibition of Trypanosoma cruzi trypanothione reductase expressed in Escherichia coli BL21 (DE3) pre-incubated for 30 mins using TS2 substrate in presence of NADPH by colorimetric microplate assay
Procedure, shortened: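 Recombinant T. cruzi TR expressed in E. coli BL21DE3 and affinity-purified. Assay: TcTR 5 m-unit, 40 mM HEPES pH 7.5, 0.15 mM NADPH, 1 mM EDTA, 1 µM TS2, compounds in DMSO (final 1% DMSO control). Pre-incubated 30 min at 27°C, then DTNB added, and A412 read every 5 min for 30 min.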

The chains behind the UniProt entries cited, without tags or fusion partners. Where a name states a change or a piece, a line headed by the entry shows the natural chain unless it says otherwise.
UniProt P28593: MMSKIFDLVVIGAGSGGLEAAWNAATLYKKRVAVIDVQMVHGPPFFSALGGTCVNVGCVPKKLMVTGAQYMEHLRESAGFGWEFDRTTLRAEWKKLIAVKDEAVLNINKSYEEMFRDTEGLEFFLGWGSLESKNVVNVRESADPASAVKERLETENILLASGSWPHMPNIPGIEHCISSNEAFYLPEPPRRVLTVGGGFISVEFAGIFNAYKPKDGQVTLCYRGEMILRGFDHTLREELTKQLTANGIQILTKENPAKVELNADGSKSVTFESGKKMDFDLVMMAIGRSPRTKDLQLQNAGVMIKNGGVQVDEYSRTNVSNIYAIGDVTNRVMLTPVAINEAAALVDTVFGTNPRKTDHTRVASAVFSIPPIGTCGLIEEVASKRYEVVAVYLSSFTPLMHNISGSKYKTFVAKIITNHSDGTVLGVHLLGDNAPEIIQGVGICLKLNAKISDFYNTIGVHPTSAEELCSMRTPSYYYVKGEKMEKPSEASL

- IC50: 15.2 µM
Structure (SMILES): CN(C)CCCN1c2ccccc2CCc2ccc(Cl)cc21 [CLOMIPRAMINE]
